No constants are given. Whether binding was seen depends on the method and setting. Some entries that bind do so weakly or less than the wild type.
Experiments:
[1] = target: T1, DSR2 N133A (Bacillus subtilis) (UniProt P0DXN8); assay: tandem affinity co-purification + SEC; His-DSR2 and GST-tube made in E. coli; for wild type the cells expressing each were mixed before lysis; Ni-NTA, then glutathione resin, GST removed with HRV 3C, HiTrap Q, Superdex 200 Increase; mutants purified by the same method
T1 sequence: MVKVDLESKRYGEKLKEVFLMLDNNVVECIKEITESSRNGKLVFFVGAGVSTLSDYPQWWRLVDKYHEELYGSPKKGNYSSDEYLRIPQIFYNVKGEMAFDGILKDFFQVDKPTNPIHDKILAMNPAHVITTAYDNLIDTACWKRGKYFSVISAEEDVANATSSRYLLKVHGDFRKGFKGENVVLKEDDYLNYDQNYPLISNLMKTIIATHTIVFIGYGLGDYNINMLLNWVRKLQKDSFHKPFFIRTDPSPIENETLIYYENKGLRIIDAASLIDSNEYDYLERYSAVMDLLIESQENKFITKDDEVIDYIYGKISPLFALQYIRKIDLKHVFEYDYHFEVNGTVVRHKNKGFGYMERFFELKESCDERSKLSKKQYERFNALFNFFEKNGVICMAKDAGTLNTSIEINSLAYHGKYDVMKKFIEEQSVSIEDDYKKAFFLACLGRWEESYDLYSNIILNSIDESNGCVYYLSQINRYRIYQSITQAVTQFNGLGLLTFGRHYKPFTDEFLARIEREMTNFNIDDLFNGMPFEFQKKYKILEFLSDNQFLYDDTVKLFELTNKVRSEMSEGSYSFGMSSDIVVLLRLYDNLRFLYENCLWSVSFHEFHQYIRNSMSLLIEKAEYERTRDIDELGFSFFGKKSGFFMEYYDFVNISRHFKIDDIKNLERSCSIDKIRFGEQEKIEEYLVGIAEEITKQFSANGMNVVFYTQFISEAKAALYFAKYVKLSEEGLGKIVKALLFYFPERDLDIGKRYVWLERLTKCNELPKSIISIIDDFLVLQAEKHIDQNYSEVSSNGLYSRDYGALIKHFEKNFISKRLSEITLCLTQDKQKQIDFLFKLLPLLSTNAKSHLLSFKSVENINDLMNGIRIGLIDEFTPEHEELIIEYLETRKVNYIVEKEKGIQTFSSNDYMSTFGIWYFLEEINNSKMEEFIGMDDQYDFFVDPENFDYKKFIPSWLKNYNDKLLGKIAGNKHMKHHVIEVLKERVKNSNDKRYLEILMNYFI

[2] = target: T2, DSR2 W59A (Bacillus subtilis) (UniProt P0DXN8); assay: as above
T2 sequence: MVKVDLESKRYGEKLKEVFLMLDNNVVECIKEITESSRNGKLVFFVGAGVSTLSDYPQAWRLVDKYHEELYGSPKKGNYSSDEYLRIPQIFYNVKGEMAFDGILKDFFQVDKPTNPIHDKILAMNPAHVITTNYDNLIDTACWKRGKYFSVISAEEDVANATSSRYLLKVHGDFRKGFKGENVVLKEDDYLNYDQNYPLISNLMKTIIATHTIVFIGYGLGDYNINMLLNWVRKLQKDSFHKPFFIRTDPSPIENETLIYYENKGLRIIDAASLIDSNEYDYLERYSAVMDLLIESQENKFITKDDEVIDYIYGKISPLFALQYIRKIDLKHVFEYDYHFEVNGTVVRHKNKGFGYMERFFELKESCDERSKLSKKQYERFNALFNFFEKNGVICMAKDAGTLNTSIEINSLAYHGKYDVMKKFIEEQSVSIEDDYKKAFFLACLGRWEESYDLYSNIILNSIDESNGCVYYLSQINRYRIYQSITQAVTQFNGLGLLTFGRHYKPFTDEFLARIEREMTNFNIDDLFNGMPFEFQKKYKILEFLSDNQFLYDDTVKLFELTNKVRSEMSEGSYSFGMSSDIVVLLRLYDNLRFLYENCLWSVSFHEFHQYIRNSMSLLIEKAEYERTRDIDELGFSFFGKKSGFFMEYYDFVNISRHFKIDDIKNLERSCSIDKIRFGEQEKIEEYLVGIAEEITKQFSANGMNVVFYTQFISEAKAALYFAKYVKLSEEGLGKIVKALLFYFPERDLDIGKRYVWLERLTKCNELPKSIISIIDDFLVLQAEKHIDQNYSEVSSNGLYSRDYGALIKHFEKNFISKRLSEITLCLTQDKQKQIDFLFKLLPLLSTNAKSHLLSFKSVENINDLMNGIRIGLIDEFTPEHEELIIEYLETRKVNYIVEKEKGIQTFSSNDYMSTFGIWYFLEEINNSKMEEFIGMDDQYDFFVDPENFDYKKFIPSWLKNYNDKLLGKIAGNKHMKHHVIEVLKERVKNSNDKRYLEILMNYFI

B1: tail tube protein of phage SPR, wild type (natural protein)
chain: MKTVIQDTADVYFKRKSDGKLVFTAEAQTASFSQAISEEKLRGGIGNKPLYILKSEKEINLTVKNAFFDLEWLAMTQGETIQEETKVKVFDREHGLIVDDTNKVTLKGKPVSDVTFYNKKGLTYKIAVSTDGTYTIPTAFAAAKDKLTAVYQIEKVGRRLAIKASKFSERYEVEYRTIAYNPDTEEVYSDIYIQFPNVSPSGEFEMSLENGNALAPEIKFEALADTDTDEMAVVIEASRDENTAAPVEDTTGSTQSSDLGGTTE
notes: tail tube protein of Bacillus phage SPR; domains D1 and D2; GST removal with HRV 3C is told for the DSR2-tube complex; Alone it runs as monomeric and oligomeric species on SEC; Only D1 is seen in the maps; also called phage tail tube protein; source: E. coli BL21 Star (DE3); purified alone, or co-purified with DSR2 (Ni-NTA, glutathione resin, HRV 3C cleavage, HiTrap Q, Superdex 200); not shown: …
Q: Which binding [1] does the source give for B1 here?
A: Its binding is “binds”.

Q: What about the binding [2] of the same binder?
A: The binding was “binds”.
